Data as given in PubChem BioAssay AID504764 (Drosophila RNAi Screening Center, 2011).
Purpose: 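Genes whose knock-down alters Notch-dependent transcription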 (primary screen). Cells: Drosophila Kc167 cells. Reagent: long dsRNA against Drosophila genes. Timing: about 5 days (4 days dsRNA, then 24 h after transfection). Conditions: transfection of constitutively active membrane-tethered Notch lacking the extracellular domain, read 24 h later. Measurement: 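Firefly luciferase from an E(spl)m3 reporter with active Notch, plus control-promoter and uninduced reporter wells for normalisation; unnormalised counts, duplicate wells a and b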. Scale: induced reporter light, run 1, well a and induced reporter light, run 1, well b: higher = more light from the Notch target reporter with active Notch; control promoter light, run 1, well a and control promoter light, run 1, well b: higher = more light from the viral control promoter (cell number, transfection, viability); uninduced reporter light, run 1, well a: higher = more light from the Notch target reporter without active Notch. Hit rule: 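Hit if the duplicate-averaged log2 ratio of induced to control-promoter light gives a plate-wise z beyond ±2, or induced to uninduced beyond ±1.8; weak-control or discordant-duplicate wells dropped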. Meaning of the calls: active = modifier hit (raised or lowered Notch signal); inactive = not a hit.
The screen tested about 22,000 reagents; below is an unselected part of those that have a named target and a result. Of all reagents, 403 (1.9%) got an active call. 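Unnormalised raw counts per well; ratio z-scores behind the hit calls and whether each hit raises or lowers signal are not deposited.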 Names joined by + are all predicted targets of the reagent. No sequences are given here. The record does not give: the amount of reagent.

induced reporter light, run 1, well a	induced reporter light, run 1, well b	control promoter light, run 1, well a	control promoter light, run 1, well b	uninduced reporter light, run 1, well a	call	gene knocked down	amplicon
40560	31415	52875	53760	2838	inactive	alphaCOP	DRSC08706
1.17e5	1.36e5	1.99e5	2.29e5	10665	inactive	Smvt	DRSC15426
1.16e5	93655	83040	84970	9280	inactive	CG7906	DRSC10928
1.75e5	1.44e5	1.53e5	1.56e5	15375	inactive	CG12129	DRSC06105
1.53e5	1.48e5	1.99e5	1.64e5	11505	inactive	TotB	DRSC15842
1.29e5	1.17e5	99290	93570	7038	inactive	Kat60	DRSC12378
68055	48400	63565	58970	3132	inactive	Cdc37	DRSC08648
68645	69950	59170	89745	6005	inactive	DIP-epsilon	DRSC00932
1.81e5	1.80e5	2.35e5	2.40e5	12210	inactive	DIP-epsilon	DRSC02313
1.33e5	1.28e5	2.41e5	2.54e5	10350	inactive	CG14417	DRSC18638
1.12e5	1.09e5	2.09e5	1.66e5	8140	inactive	CG1354	DRSC17902
46240	39250	28790	43015	2940	inactive	CG15653	DRSC04244
91310	81695	1.18e5	1.24e5	7065	inactive	Hr51	DRSC06627
					active	Hr51	DRSC22829
1.02e5	96290	1.77e5	1.93e5	10195	inactive	Trpm	DRSC06629
2.10e5	2.17e5	2.20e5	1.90e5	20515	inactive	PIG-U	DRSC02193
58375	48195	41585	41795	3515	inactive	CG3808	DRSC10377
1.20e5	81655	1.14e5	1.09e5	8340	inactive	CG5267	DRSC06928
1.95e5	1.70e5	2.06e5	1.92e5	12090	inactive	prtp	DRSC19804
67935	70735	54395	48835	4795	inactive	CG34135 + Nasp	DRSC16397

Already shown: 2 of the entries above.
induced reporter light, run 1, well a	induced reporter light, run 1, well b	control promoter light, run 1, well a	control promoter light, run 1, well b	uninduced reporter light, run 1, well a	call	gene knocked down	amplicon
1.75e5	1.44e5	1.53e5	1.56e5	15375	inactive	CG12129	DRSC06105
1.53e5	1.48e5	1.99e5	1.64e5	11505	inactive	TotB	DRSC15842
